Measured values as given in PubChem BioAssay AID1508600 (Functional Genomics Laboratory (NCATS/FGL), 2020).
About 3,700 (7%) of roughly 53,000 sequences were called active.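 Rule for the calls: active = gene knockdowns whose robust z-score for IL-1 alpha signal is at least 2 or at most -2, so actives lie on both sides; inactive = the rest.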 The list shows a part of the results.

Assay: Components of the Cytosolic LPS Sensing Pathway: Gene Identification via Genome-wide siRNA Screen;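 note: robust z of the log signal after scaling to non-targeting control siRNA wells of the plate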
Conditions: RAW264.7 macrophages, IL-1a HTRF, actives lie on both sides, screened at 100 nM (by protocol), cells primed 5 h with Pam3CSK4 first
Method in brief: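 Knockdown: 100 nM siRNA, 48h, RAW264.7. Stimulation: Pam3CSK4 5 h, then LipidA via TransIT-TKO 24 h. Output: supernatant IL-1a HTRF, negative-control-normalized, log robust z-score; viability by CellTiter-Glo.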

Sequence	z-score
AUGUGAUAGUGCCCAGCCUTT against Olfr884	inactive: 0.433
GGAUACAUCCUUGCUGAAATT against Dapk1	inactive: 0.00847
CGAUGCAACAUGACCAAGUTT against Gm5800	inactive: 1.28
GGCUUGCAUCAAUAAAGAATT against Adam33	inactive: 0.0554
GCAAUGGAAAAAUCCAGUUTT against Spink7	inactive: 0.581
GGUUUGAGGUAACACUAGATT against Vps39	inactive: -0.125
GCUACAGUCUCUUUUAGCATT against Dync1li1	inactive: 0.511
GGGUAUAGCCAGUACCAACTT against Thoc7	inactive: -0.557
GGAACAAAUAAAGGUAAACTT against Tgs1	inactive: -0.0146
GCCAUUAUUGGAGCUGGCATT against Olfr105-ps	inactive: 0.12
GCUAACACAACGAGAGAAGTT against Ushbp1	active: -2.39
CGGAAAACGAAUAAACUACTT against Gria2	inactive: 1.35
GGAAGAGAUGAACUCUCAGTT against Sf3b2	inactive: 0.0943
GGGUUUAAGUAUGUUGUAATT against Exoc8	inactive: -1.43
GCUACAUUCCUCAAAUACCTT against G6pdx	inactive: -0.443
CGCACUGCUAAUCAUUCCCTT against Slc35f2	inactive: -0.00246
GGCAGUGGCUAUCAUGAGATT against Dpep1	inactive: -0.748
GCAACUAUGACCAUAAACUTT against Gabre	inactive: 0.333
GCUCCAUUUAUGCUCCCAGTT against Zfp65	inactive: -0.024
GGAUCGACAGCAUCAUUCUTT against Pea15b	inactive: -0.624
GCUAGAAAAUCUCUCCAACTT against Cnn2	inactive: -0.551
AUACCCAACACCUAGUAACTT against Sval3	inactive: -0.794

Sequence	z-score
GGCCUAGAAAGGAAUGAUATT against Nufip2	inactive: -0.725
GGUGGAUUCUAGCUUGUCGTT against Dusp10	inactive: 0.883
GGAUGACACAACUAUGACATT against Lmbr1	inactive: -0.188
UCUGGGUGUAAUGAAGGAGTT against Ces2b	inactive: 0.786
CGGUAGAAGGCUUAGGCAATT against Aox1	inactive: -0.922
GGAACACAGAGAAUACAAATT against Sdccag8	inactive: 1.06
GCAUGUUGAAAUCAAUUGATT against Cacnb4	inactive: 0.595
GGAGCUUUGCUUAGCACUGTT against Ccdc85b	inactive: -1.27
GGCCUAACAGAACUGUGAGTT against P2ry2	inactive: -0.611
GCUAUGAUCGAUCAAAUUCTT against Hexdc	inactive: 0.604
GGACAUGGAUUUCAUCAUGTT against Slc35a5	inactive: 0.154
CCAAGUAUGAGGAACGAGUTT against Creb3l3	inactive: -0.443
GGCAAGUCCUAGUUUUGUUTT against Ackr1	inactive: -1.65
GCCUUGAUAAUUUUGUAAGTT against Gimap9	inactive: 0.533
CCCAUGACCUAUGUUGUAGTT against Xpc	inactive: -0.473
CCCACUGCAUUACUCACUCTT against Olfr873	inactive: -1.01
GCGUGAGAAAACCUUGGAUTT against Tas2r115	inactive: 0.342
GGAGAAGGACCAUCUAAAGTT against Cmah	inactive: 0.901
GGCAUACCGUAAAAGUGGCTT against Olfr73	inactive: -1.95
GCCAGUUGACUCUUCUUUATT against Zbtb44	inactive: -0.238
GGAUUCAUAGACUUCAUAGTT against Impdh1	inactive: 0.608
GGAACCAAUCCACCUGAUUTT against Tas2r136	inactive: 0.402

Sequence	z-score
GGACUUCUAUGAUUGGCUGTT against Por	inactive: 1.02
GGUAGCUGUCAACAAGGCATT against Akt2	inactive: 0.409
GGCUAACCCUUUCAAGGAGTT against Cib1	inactive: -1.08
GGAGUUUGGGAACACUUUGTT against Apoc1	inactive: 0.617
GGCUGACCUAAAGAAGGAGTT against Cnot3	inactive: -0.725
GGAGUUCACCAGCUACCAATT against Myoz3	inactive: -0.537
CCUGAAGCCUCAAUACACATT against Ugt1a1	inactive: 0.967
CGAGGAUGCUUUUUAAAAATT against Inip	inactive: -0.0653
GGUGUUGUAUUCAGGCUGGTT against Slc41a1	inactive: -0.397
GCUGAUAAAGUUUUUGUCUTT against Tas2r104	inactive: -0.17
GCAUUAUGGAAAGUUGGAGTT against Gabra4	inactive: 0.915
CCUUGAUGGAUGUUACCAATT against Asah1	inactive: 0.12
GGCUAUGAGUUUUUCUAUUTT against Sart3	inactive: -0.738
CGAAAUUUAACUUGAACAGTT against Toporsl	inactive: 0.659
GGGAACACAGCUAUUUCCUTT against Olfr808	inactive: 1.32
GGAUCCAAGGCAAAGAUGUTT against Fto	inactive: 1.73
GCAACAUGAAGAUAAGUGCTT against Zbtb1	inactive: 0.384
GGGUUAGGUUUUGAUGUAATT against Abhd5	inactive: -0.271
GGUCUUACGCAAAACGGUCTT against Csf1r	active: 2.86
GGCUAUUUCUUUUUAUGCUTT against Ak4	inactive: 0.911
GGAAGAAAUUCGAUGAUGATT against Mcrs1	inactive: -1.59
GGUAAAGAGCAGUGAUAUCTT against Pls3	inactive: 0.663

Sequence	z-score
CGAUUCAUUCAGUUUGUAATT against Terb1	inactive: -0.631
GGACCUCAAGGCACUAAUATT against Car7	inactive: 0.385
GAAAGAACUGUGGCUUCCCTT against Tff2	inactive: 1.35
CGCAGAAACACAGUCCACATT against Cntfr	inactive: 0.714
CCCUCACAGCGACUUUAACTT against Prr15l	inactive: 0.0331
CCUUCUCCAUGUCAGAUCUTT against Col5a2	inactive: 0.23
GGAUCCAUUGAGCUCUGUCTT against Poln	inactive: -1.37
GGUGCAAAUGUUCUCAUCUTT against Mfsd4b1	active: 2.11
GGUGUGAGUGUCGGAAUCUTT against Islr2	inactive: 0.138
GGAAUUUGGAAAGAUCUAUTT against Gm4876	inactive: 0.111
GGCCUGUUCUGAAGAACUATT against Gp2	inactive: -0.115
GCAUCCUUCUGAGUUGAUGTT against Tollip	inactive: -1.02
GGAGAGAGCUCAGGAAUGATT against Rpp25	inactive: 0.544
GGGAACAAACCUUGAUUCUTT against Adam24	active: 3.49
GCUGAUUGAACUGAAUGGATT against Slc22a21	inactive: -1.27
CGGAGAAGUCACCAAUACUTT against Tll1	inactive: -0.0687
GGUUCUGAACACAUUUCCATT against Cyp2d13	inactive: -1.07
GGUACUAACACCACAAAAATT against Cep83	inactive: -0.757
GGAACGAUGAGGAAAUCUCTT against Clcc1	inactive: 0.537
GGAGAACCCAUUCAAGUCCTT against Zfp280b	inactive: -0.699
GGCUUCCAGAUGGACGAGATT against Prkag3	inactive: -1.35
GGAUGAAGAUGAAAAAGAUTT against Hoxc9	inactive: -0.247

Shown comma-delimited: entries from further up.
Sequence,z-score
GCAACUAUGACCAUAAACUTT against Gabre,inactive: 0.333
GCUCCAUUUAUGCUCCCAGTT against Zfp65,inactive: -0.024
GGAUCGACAGCAUCAUUCUTT against Pea15b,inactive: -0.624
GCUAGAAAAUCUCUCCAACTT against Cnn2,inactive: -0.551
AUACCCAACACCUAGUAACTT against Sval3,inactive: -0.794
GGCCUAGAAAGGAAUGAUATT against Nufip2,inactive: -0.725
GGUGGAUUCUAGCUUGUCGTT against Dusp10,inactive: 0.883
GGAUGACACAACUAUGACATT against Lmbr1,inactive: -0.188
UCUGGGUGUAAUGAAGGAGTT against Ces2b,inactive: 0.786
CGGUAGAAGGCUUAGGCAATT against Aox1,inactive: -0.922
GGAACACAGAGAAUACAAATT against Sdccag8,inactive: 1.06
GCAUGUUGAAAUCAAUUGATT against Cacnb4,inactive: 0.595
GGAGCUUUGCUUAGCACUGTT against Ccdc85b,inactive: -1.27
GGCCUAACAGAACUGUGAGTT against P2ry2,inactive: -0.611
GCUAUGAUCGAUCAAAUUCTT against Hexdc,inactive: 0.604
GGACAUGGAUUUCAUCAUGTT against Slc35a5,inactive: 0.154
CCAAGUAUGAGGAACGAGUTT against Creb3l3,inactive: -0.443
GGCAAGUCCUAGUUUUGUUTT against Ackr1,inactive: -1.65
GCCUUGAUAAUUUUGUAAGTT against Gimap9,inactive: 0.533
CCCAUGACCUAUGUUGUAGTT against Xpc,inactive: -0.473

The listing continues.

Sequence	z-score
CCUCUAUAAAUAGCAUAGUTT against Olfr860	inactive: -1.06
GCCUAUCUACUGACCUUUGTT against Styxl1	inactive: 0.383
GGAAGGAAGAGAAUAAGCGTT against Tent2	inactive: 0.431
CCUUUUGAUAGUGAUGGUCTT against Olfr735	inactive: -0.673
GGUGAACAUUGACCACUUCTT against Rgs5	inactive: -1.47
GCUUCGGCCUCAGUAUUCATT against Pigb	inactive: 0.0355
GGAAAAACUUGACUUACAATT against Bhlha15	inactive: 1.97
GGCUCCGUGAUGCUUCAAGTT against Selenbp2	inactive: 1.15
GGCCUAUAGGUUGGGCUCUTT against Tonsl	active: -2.57
GGUCCAGGUGACAAUAAAUTT against Tmem143	inactive: -1.78
GGUUGAUAGGCCAAAUUGUTT against Tuba1a	inactive: 0.0575
GCCUCUAACAAAACUAGGCTT against Rpl34	inactive: 0.624
GCUUUAAACUGAGUGAUAATT against Zfp451	inactive: -0.564
GGGAAUCUAAAUUAUUCUGTT against Mfsd1	inactive: -0.202
GCAUGUAGCCUGGCCUUCUTT against Zfp458	inactive: -0.591
GGUUUCGUCUGUUCCUUAATT against Dxo	inactive: 1.45
GGCCUCUAUCUUCCAACAATT against Tent4a	active: -2.06
GGCUUUAGUUAGAACGGGUTT against Pttg1	inactive: 1.46
GGUGAUUUCACUGGGUAAGTT against Olfr632	inactive: 1.72
